Source: PubChem BioAssay AID588590 (National Center for Advancing Translational Sciences (NCATS), 2011)
Hit rate of the full screen: of about 390,000 compounds, about 4,000 (1%) were called active. The inconclusive results got no clear call from the source; some entries with a clear call stand among them for comparison. The call rests on the fitted dose curve; in most records, active means well fitted inhibition curve with a large enough effect; inconclusive means small, poorly fitted or top-dose-only effect, or another doubt; inactive means no such curve, though single readings can be large or run the other way. Potencies of inconclusive entries are doubtful fits and often do not repeat.

By UniProt entry, the sequences of proteins in these tests, tags left out. Where a name states a change or a piece, a line headed by the entry shows the natural chain unless it says otherwise.
UniProt Q9UNA4: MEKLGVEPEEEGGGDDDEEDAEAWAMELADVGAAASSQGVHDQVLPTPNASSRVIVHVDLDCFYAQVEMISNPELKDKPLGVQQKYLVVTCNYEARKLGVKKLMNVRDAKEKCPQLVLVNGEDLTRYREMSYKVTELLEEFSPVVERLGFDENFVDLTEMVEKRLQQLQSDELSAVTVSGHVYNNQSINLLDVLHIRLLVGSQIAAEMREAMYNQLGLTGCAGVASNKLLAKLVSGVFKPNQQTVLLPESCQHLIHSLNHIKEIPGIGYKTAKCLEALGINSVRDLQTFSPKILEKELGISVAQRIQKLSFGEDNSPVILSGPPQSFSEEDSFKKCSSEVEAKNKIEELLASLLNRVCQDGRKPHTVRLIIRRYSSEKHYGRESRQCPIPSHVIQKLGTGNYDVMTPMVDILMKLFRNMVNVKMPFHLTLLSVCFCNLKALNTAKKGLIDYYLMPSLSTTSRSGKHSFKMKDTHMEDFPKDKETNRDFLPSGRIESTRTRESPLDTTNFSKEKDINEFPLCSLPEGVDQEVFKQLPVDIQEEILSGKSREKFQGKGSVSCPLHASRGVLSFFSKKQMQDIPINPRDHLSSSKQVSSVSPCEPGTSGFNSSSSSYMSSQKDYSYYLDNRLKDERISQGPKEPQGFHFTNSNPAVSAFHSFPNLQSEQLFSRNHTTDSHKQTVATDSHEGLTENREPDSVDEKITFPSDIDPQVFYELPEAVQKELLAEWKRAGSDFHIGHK

Biological target: DNA polymerase iota (Homo sapiens) (UniProt Q9UNA4)
Test: qHTS for Inhibitors of Polymerase Iota
Settings: Pol iota fluorescent replication assay, 10 min; series mostly up to 115 µM; activity, negative = inhibition: at the top concentration
How it was run: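 Pol iota at 10 nM preincubated 15 min with compounds at room temperature; reaction started with fluorescent substrate, 50 nM final. Fluorescence read kinetically at 0 and 10 min; buffer-only wells as negative control.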
Potency means the concentration at half of the fitted maximal effect.

| Structure (SMILES) | Potency | activity, negative = inhibition |
| --- | --- | --- |
| O=C(NN=Cc1ccc(N(CCCl)CCCl)cc1)c1cccc([N+](=O)[O-])c1 | inconclusive: 15.8 µM [inhibitor, full curve, poor fit] | – |
| CN1CN(c2ccccc2)C2(CCN(CCCSc3ccccc3NC(=O)/C=C/c3ccccc3)CC2)C1=O | inconclusive: 89.1 µM [inhibitor, partial curve] | – |
| O=[N+]([O-])NC1=NCN(Cc2ccco2)CN1Cc1ccco1 | inconclusive: 89.1 µM [inhibitor, single point] | – |
| CN(C)CCN=Cc1c(O)n(C2CCCCCC2)c(=O)[nH]c1=O | – | inactive: -6.3% |
| O=C1N[C@H](Cc2ccccc2)C(=O)N2[C@@H]3[C@H](C[C@@H]12)c1ccccc1N3OOSc1ccccc1 | – | inactive: 0.214% |
| O=[N+]([O-])c1ccccc1CN1CC=C(c2ccc(F)cc2)CC1 | inconclusive: 7.08 µM [inhibitor, full curve, poor fit] | – |
| Nc1ccc(Br)cc1 | inconclusive: 56.2 µM [inhibitor, partial curve, poor fit] | – |
| CCN1C(=O)NC(=O)/C(=C\c2cn(CC(=O)N3CCCC3)c3ccccc23)C1=O | inconclusive: 20 µM [inhibitor, partial curve, poor fit] | – |
| Cc1ccc(CNc2cc(C)nc3nc(-c4ccc(C)cc4)nn23)cc1 | inconclusive: 89.1 µM [inhibitor, partial curve, poor fit] | – |
| C[C@@H]1NCCc2cc(O)c(O)cc21 | inconclusive: 79.4 µM [inhibitor, partial curve, poor fit] | – |
| O=C(CN1CCOCC1)c1ccc2ccccc2c1 | – | inactive: 9.16% |
| O=C(N/N=C/C1C(=O)NC(=S)N(c2ccccc2)C1=O)c1cc(Br)c(O)c(Br)c1 (centres undefined) | inconclusive: 15.8 µM [inhibitor, partial curve, poor fit] | – |
| O=c1[nH]c(O)c(/C=C2\C=Nc3ccc(OCc4ccccc4)cc32)c(=O)[nH]1 | inconclusive: 12.6 µM [inhibitor, partial curve, poor fit] | – |
| CCC(=NCc1cccnc1)c1c(O)n(-c2ccccc2)c(=O)[nH]c1=O | inconclusive: 28.2 µM [inhibitor, partial curve] | – |
| N#CC1=C(N)Oc2c(c(=O)oc3ccccc23)C1c1ccc([N+](=O)[O-])o1 (centres undefined) | inconclusive: 3.16 µM [inhibitor, partial curve, poor fit] | – |
| Oc1ccc(/C=N/NP(=S)(c2ccccc2)c2ccccc2)cc1O | inconclusive: 112 µM [inhibitor, single point] | – |
| C=Cn1c(P(=S)(N2CCOCC2)N2CCOCC2)cc2c1CCCC2 | inconclusive: 56.2 µM [inhibitor, partial curve] | – |
| O=[N+]([O-])c1ccc(N2CC2)c([N+](=O)[O-])c1 | – | inactive: 6.69% |
| O=c1[nH]c(=O)n(CCC2=CCCCC2)c(O)c1/C=N/Nc1cccc2ccccc12 | – | inactive: -0.195% |
| CCNCC1(c2ccc(OC)c(OC)c2)CCCC1 | inconclusive: 89.1 µM [inhibitor, single point] | – |
| c1ccc(C2CC3CC(c4ccco4)N2O3)cc1 (centres undefined) | inconclusive: 39.8 µM [inhibitor, partial curve, poor fit] | – |
| COC(=O)C1=C(c2cccc(OC)c2OC)C[C@@H]2CC[C@H]1N2C(=O)NCc1ccc(F)cc1 | inconclusive: 79.4 µM [inhibitor, single point] | – |

5 of these compounds in a different format.
Structure (SMILES)	Potency	activity, negative = inhibition
CCN1C(=O)NC(=O)/C(=C\c2cn(CC(=O)N3CCCC3)c3ccccc23)C1=O	inconclusive: 20 µM [inhibitor, partial curve, poor fit]	–
Cc1ccc(CNc2cc(C)nc3nc(-c4ccc(C)cc4)nn23)cc1	inconclusive: 89.1 µM [inhibitor, partial curve, poor fit]	–
C[C@@H]1NCCc2cc(O)c(O)cc21	inconclusive: 79.4 µM [inhibitor, partial curve, poor fit]	–
O=C(CN1CCOCC1)c1ccc2ccccc2c1	–	inactive: 9.16%
O=C(N/N=C/C1C(=O)NC(=S)N(c2ccccc2)C1=O)c1cc(Br)c(O)c(Br)c1 (centres undefined)	inconclusive: 15.8 µM [inhibitor, partial curve, poor fit]	–

Later entries

| Structure (SMILES) | Potency | activity, negative = inhibition |
| --- | --- | --- |
| CCOc1cc(C=C2C(=O)NC(=S)NC2=O)ccc1O | inconclusive: 25.1 µM [inhibitor, single point] | – |
| CCOC(=O)C1(c2ccccc2)CCN(CCC(=O)Nc2ccc(C(=O)OC)cc2)CC1 | inconclusive: 89.1 µM [inhibitor, single point] | – |
| Cc1cc(N2CCCC2)ccc1C=C(C#N)C#N | – | inactive: 33.2% |
| CCN(CCO)c1ccc(N=Cc2c(O)n(C)c(=S)[nH]c2=O)cc1 | inconclusive: 12.6 µM [inhibitor, full curve, poor fit] | – |
| O=S(=O)(c1ccc(Cl)cc1)N1CN2CCN(C2)C1 | – | inactive: 3.17% |
| CCC1Nc2ncnc(N3CCN(c4ccccn4)CC3)c2N(Cc2ccc(Br)cc2)C1=O (centres undefined) | inconclusive: 15.8 µM [inhibitor, full curve, poor fit] | – |
| O=C(OCC(=O)c1ccc([N+](=O)[O-])cc1)/C(=C\c1ccc(Cl)cc1)NC(=O)c1ccccc1 | inconclusive: 112 µM [inhibitor, single point] | – |
| COc1ccc(-n2c(Cc3cccc([N+](=O)[O-])c3)nc3ccccc3c2=O)cc1 | inconclusive: 89.1 µM [inhibitor, single point] | – |
| COc1ccc(Cn2c(N)c(C(=O)NCc3ccco3)c3nc4ccccc4nc32)cc1OC | inconclusive: 28.2 µM [inhibitor, partial curve] | – |
| Cn1cc(/C=C2\C(=O)NC(=O)N(c3ccccc3)C2=O)c2ccccc21 | inconclusive: 1.78 µM [inhibitor, full curve, poor fit] | – |
| CCC(=NCCO)c1c(O)n(C2CCCCC2)c(=O)[nH]c1=O | – | inactive: 0.364% |
| O=C1NC(=O)N(Cc2ccc(F)cc2)C(=O)/C1=C\c1ccc([N+](=O)[O-])s1 | active: 14.1 µM | – |
| CCc1ccc(N2C(=O)NC(=O)/C(=C\c3cc(C)n(-c4cc(C(=O)O)cc(C(=O)O)c4)c3C)C2=O)cc1 | active: 20 µM | – |
| Nc1c(Br)cc2c3c(cccc13)-c1ccccc1-2 | inconclusive: 1.78 µM [inhibitor, full curve, poor fit] | – |
| C=C(C)[C@H]1Cc2c(ccc3c2O[C@@H]2COc4cc(OC)c(OC)cc4[C@@H]2C3=O)O1 | inconclusive: 22.4 µM [inhibitor, partial curve] | – |
| O=C(N/N=C/c1c(O)n(CCc2ccccc2)c(=O)[nH]c1=O)c1ccccc1 | – | inactive: 153% |
| COc1cccc(-c2nc(CS(=O)CC(=O)N3CCC4(CC3)OCCO4)c(C)o2)c1 (centres undefined) | – | inactive: 19.4% |
| COc1cc2c(cc1OC)[C@@]13CCN4CC5=CCO[C@H]6CC(=O)N2[C@H]1[C@H]6[C@H]5C[C@H]43 | – | inactive: 9.59% |
| N[C@@H](CCl)C(=O)O | inactive | – |
| Clc1ccc(OCC#CCN2CCCCCC2)cc1 | inconclusive: 39.8 µM [inhibitor, single point] | – |
| Cc1cc(C=C2C(=O)N(C)C(=S)N(C)C2=O)c(C)n1C1CCCCC1 | inconclusive: 12.6 µM [inhibitor, partial curve, poor fit] | – |
| CCc1ccc(N2C(=O)NC(=O)/C(=C/c3cccn3CCOc3ccc(C)cc3)C2=O)cc1 | inconclusive: 14.1 µM [inhibitor, full curve, poor fit] | – |

| Structure (SMILES) | Potency | activity, negative = inhibition |
| --- | --- | --- |
| Cc1ccc(OCC(=O)NCCN2CCN(C(=O)COc3ccc(C)cc3)CC2)cc1 | inconclusive: 2 µM [inhibitor, full curve] | – |
| NNC(N)=O | inconclusive: 89.1 µM [inhibitor, partial curve, poor fit] | – |
| Cc1ccccc1-n1c(/C=C/c2c(C)[nH]c3ccccc23)nc2ccccc2c1=O | inconclusive: 20 µM [inhibitor, partial curve, poor fit] | – |
| Cc1ccccc1-n1c(C)nc2ccsc2c1=O | inconclusive: 12.6 µM [inhibitor, full curve, poor fit] | – |
| CCC(=NCCc1c[nH]c2ccccc12)c1c(O)n(C)c(=O)n(C)c1=O | inconclusive: 112 µM [inhibitor, single point] | – |
| CN(C)c1ccc(/C=C2\C(=O)NC(=O)N(Cc3ccc(F)cc3)C2=O)cc1 | – | inactive: 19% |
| COc1ccc(/C=C/C=C2C(=O)NC(=S)NC2=O)cc1 | inconclusive: 15.8 µM [inhibitor, full curve, poor fit] | – |
| CCCn1ncc(CN2CCCC(C(=O)c3cccc(OC)c3)C2)c1C (centres undefined) | inconclusive: 100 µM [inhibitor, partial curve, poor fit] | – |
| Cc1ccc(-c2nc(N3CCOCC3)s[n+]2-c2ccccc2)cc1 | – | inactive: -7.22% |
| Oc1ccc(CC2CC3CCN2CC3)cc1O (centres undefined) | – | inactive: 7.45% |
| C/C(=C\c1ccc(N(C)C)cc1)[N+](=O)[O-] | inconclusive: 17.8 µM [inhibitor, partial curve, poor fit] | – |
| O=C1NC(=O)C(=Cc2cn(CCOc3ccc4c(c3)OCO4)c3ccccc23)C(=O)N1 | inconclusive: 11.2 µM [inhibitor, partial curve, poor fit] | – |
| C[n+]1c2ccccc2nc2ccc(NCCO)cc21 | inconclusive: 56.2 µM [inhibitor, partial curve, poor fit] | – |
| CCn1c(O)c(C=Nc2ccc(S(N)(=O)=O)cc2)c(=O)n(CC)c1=S | inconclusive: 112 µM [inhibitor, partial curve, poor fit] | – |
| Cc1cc(/C=C2\C(=O)NC(=O)N(Cc3ccco3)C2=O)c(C)n1-c1ccc(O)cc1 | inconclusive: 3.16 µM [inhibitor, full curve, poor fit] | – |
| Cc1cc(/C=C2\C(=O)NC(=O)N(c3ccc(F)cc3)C2=O)c(C)n1-c1ccc(C(=O)O)cc1 | inconclusive: 25.1 µM [inhibitor, partial curve, poor fit] | – |
| COP(=S)(OC)SCN1C(=O)c2ccccc2C1=O | inconclusive: 5.62 µM [inhibitor, full curve, poor fit] | – |
| O=c1[nH]c(=S)n(CCC2=CCCCC2)c(O)c1/C=N/Nc1ccccc1 | inconclusive: 50.1 µM [inhibitor, partial curve] | – |
| CC(=O)C1C2c3ccccc3OC1(C)N=c1s/c(=C/c3cn(C)nc3C)c(=O)n12 (centres undefined) | inconclusive: 22.4 µM [inhibitor, partial curve, poor fit] | – |
| CC1(C)OC(c2ccccc2)=C/C(=C/C=C2C(=O)NC(=S)NC2=O)O1 | inconclusive: 11.2 µM [inhibitor, full curve, poor fit] | – |
